From article PMC6446838
Results are given in words; binding and its absence hold for the method and conditions named. In cells and extracts the contact can be indirect. Some entries that bind do so weakly or less than the wild type.

By UniProt entry, the sequences of proteins in these tests, tags left out. Residues count along the entry.
UniProt Q14244: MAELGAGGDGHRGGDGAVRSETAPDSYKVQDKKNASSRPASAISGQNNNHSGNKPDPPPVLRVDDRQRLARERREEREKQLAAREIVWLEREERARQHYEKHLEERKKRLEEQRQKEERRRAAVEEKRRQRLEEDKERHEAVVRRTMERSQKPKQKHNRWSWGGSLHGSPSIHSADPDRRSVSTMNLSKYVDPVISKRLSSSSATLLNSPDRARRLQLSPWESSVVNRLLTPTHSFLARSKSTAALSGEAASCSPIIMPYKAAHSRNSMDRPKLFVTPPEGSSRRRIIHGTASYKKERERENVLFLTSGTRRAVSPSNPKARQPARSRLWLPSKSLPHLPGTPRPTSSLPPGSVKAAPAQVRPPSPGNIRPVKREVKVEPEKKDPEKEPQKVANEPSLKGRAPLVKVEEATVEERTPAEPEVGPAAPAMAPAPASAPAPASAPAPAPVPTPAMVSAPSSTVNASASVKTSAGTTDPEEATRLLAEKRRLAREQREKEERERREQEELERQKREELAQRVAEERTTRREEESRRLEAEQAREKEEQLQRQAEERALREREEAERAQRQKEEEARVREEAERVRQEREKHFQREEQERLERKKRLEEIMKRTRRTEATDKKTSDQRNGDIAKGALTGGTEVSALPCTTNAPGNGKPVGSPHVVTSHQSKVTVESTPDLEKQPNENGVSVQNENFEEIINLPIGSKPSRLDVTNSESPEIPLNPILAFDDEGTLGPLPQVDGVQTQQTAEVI
UniProt Q3KQU3: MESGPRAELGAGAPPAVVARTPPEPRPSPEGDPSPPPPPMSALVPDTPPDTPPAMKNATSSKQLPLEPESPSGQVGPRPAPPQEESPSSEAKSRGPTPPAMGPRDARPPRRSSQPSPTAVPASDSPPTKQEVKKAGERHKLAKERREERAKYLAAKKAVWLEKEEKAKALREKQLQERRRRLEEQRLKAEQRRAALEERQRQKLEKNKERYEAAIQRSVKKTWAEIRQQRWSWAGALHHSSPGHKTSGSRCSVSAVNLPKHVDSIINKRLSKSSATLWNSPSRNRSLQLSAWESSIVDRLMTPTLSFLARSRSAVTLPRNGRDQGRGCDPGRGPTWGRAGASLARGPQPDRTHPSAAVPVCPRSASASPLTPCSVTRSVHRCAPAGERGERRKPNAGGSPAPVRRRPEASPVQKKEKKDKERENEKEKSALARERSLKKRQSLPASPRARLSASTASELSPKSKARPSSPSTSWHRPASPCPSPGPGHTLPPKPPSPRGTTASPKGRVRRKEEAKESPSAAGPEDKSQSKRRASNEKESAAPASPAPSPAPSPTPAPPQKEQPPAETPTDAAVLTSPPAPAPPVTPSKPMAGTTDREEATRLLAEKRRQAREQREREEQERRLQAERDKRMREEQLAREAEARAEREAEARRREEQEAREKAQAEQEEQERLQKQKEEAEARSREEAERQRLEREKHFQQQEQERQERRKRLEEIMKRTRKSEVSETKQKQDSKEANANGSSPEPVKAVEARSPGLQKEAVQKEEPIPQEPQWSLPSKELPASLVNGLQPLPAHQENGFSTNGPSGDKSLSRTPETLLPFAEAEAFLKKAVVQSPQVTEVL
UniProt Q96T17: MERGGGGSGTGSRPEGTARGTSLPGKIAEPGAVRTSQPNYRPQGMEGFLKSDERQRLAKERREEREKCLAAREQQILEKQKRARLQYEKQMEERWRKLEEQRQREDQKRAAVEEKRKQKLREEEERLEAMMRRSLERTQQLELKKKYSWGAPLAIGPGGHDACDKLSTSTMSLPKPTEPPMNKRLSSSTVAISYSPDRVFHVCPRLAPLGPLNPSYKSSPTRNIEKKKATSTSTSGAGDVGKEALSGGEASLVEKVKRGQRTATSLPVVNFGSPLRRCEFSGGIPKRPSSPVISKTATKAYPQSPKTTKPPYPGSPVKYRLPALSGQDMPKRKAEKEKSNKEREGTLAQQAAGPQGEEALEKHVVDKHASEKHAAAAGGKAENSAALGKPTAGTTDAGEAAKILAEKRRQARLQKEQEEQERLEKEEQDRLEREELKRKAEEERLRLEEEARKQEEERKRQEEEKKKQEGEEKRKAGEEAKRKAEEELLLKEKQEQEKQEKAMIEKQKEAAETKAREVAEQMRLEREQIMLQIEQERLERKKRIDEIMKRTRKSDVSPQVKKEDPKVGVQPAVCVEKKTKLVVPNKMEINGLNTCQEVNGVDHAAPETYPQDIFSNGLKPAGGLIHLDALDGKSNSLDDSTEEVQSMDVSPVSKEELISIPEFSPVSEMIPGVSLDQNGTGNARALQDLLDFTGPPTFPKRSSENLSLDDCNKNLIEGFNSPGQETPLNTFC
UniProt P33176, residues 1-560: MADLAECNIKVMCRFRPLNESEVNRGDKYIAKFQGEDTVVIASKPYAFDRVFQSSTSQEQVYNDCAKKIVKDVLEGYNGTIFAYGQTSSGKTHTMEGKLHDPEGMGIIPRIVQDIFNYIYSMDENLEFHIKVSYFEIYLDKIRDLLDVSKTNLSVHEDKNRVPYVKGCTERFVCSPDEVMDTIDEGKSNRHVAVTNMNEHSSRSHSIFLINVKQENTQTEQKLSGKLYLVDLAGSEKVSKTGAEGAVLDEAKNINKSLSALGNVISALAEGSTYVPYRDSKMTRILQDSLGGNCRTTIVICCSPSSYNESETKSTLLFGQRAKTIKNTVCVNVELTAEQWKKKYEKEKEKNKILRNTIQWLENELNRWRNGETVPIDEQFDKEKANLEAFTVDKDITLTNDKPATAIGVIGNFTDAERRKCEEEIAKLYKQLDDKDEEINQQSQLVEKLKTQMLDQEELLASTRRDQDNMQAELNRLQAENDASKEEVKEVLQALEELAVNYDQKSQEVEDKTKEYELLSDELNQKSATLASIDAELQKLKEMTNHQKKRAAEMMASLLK

Assays:
Test in all cases: pull-down; streptavidin Dynabeads pull-down from HEK293T lysates coexpressing BirA, Bio-mCherry-tagged bait and GFP-tagged KIF5B prey; 20 mM Tris pH 7.5, 150 mM NaCl, 1 mM MgCl2, 1% Triton X-100 lysis; washes with 150 mM NaCl, 0.1% Triton X-100; 4°C; Western blotting
Bio-mCherry-MAP7D3 = target: T1, Bio-mCherry-MAP7D3 (UniProt Q8IWC1)
T1 sequence (chain, biotin on the BirA substrate tag (coexpressed biotin ligase BirA)): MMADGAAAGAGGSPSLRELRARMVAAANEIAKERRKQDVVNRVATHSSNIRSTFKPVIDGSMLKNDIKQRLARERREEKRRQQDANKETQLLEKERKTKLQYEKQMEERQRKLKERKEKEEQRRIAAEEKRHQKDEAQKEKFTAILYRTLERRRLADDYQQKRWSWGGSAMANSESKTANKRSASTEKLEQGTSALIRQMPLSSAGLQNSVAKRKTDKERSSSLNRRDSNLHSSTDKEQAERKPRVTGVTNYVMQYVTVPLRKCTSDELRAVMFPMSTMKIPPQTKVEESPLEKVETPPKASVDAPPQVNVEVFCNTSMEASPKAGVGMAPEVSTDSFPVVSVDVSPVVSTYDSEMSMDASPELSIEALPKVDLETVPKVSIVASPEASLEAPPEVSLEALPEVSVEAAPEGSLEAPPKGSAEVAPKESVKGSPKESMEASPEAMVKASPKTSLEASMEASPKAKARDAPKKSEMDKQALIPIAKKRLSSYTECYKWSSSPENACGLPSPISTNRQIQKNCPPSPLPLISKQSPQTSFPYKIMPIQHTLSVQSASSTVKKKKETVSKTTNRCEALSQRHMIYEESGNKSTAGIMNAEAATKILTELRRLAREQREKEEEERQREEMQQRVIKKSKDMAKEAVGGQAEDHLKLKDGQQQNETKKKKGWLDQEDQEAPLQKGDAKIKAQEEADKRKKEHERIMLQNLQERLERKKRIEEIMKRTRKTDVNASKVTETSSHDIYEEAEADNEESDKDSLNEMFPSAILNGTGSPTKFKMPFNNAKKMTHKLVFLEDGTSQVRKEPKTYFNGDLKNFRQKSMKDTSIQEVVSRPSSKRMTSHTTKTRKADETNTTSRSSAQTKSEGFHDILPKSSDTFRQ

Bio-mCherry-MAP7 = Bio-mCherry-MAP7 (UniProt Q14244)
Bio-mCherry-MAP7D1 = Bio-mCherry-MAP7D1 (UniProt Q3KQU3)
Bio-mCherry-MAP7D2 = Bio-mCherry-MAP7D2 (UniProt Q96T17)

Measured: binding

K560-GFP (kinesin-1 KIF5B fragment 1–560), expressed in HEK293T cells for pull-down (from UniProt P33176 1-560) (domain or fragment)
binds: all assays above
